# Where “and” joins values, the source holds several entries; their conditions need not be identical. Equal values may be shown once. Where a name gives a salt, the structure may show the parent alone. ± gives the standard deviation of the averaged measurements. The list shows a part of the results. Most values lie within the scatter of the assay; repeated measurements hardly agree.
# Test system: A549
# Test: surface PD-L1 immunofluorescence intensity relative to IFN-gamma-only control (ratio); higher = more PD-L1 expression
# Conditions: 10 µM; exposure time 24 h; IFN-gamma 100 ng/mL
row,SMILES,surface PD-L1 immunofluorescence intensity
1,CCN(CC)CCNC(=O)c1ccc(N)cc1 [Procainamide hydrochloride],1.07
2,NC[C@H](O)c1ccc(O)c(O)c1 [Noradrenaline bitartrate monohydrate (Levophed)],0.924
3,"O=C(O)c1ccnc(C(=O)O)c1 [2,4-Pyridinedicarboxylic Acid]",1.05
4,"Cc1ccccc1N1CCN(S(=O)(=O)C[C@]23CC[C@H](C[C@@H]2NC(=O)[C@@H](N)CCS(C)(=O)=O)C3(C)C)CC1 [L-368,899 hydrochloride]",0.926
5,CCOC(=O)[C@@H](C)Oc1cccc2c(=O)n(CC(=O)Nc3ccc4c(c3)OCCO4)ccc12,0.978
6,CCc1cc2c(cc1CC)CC(NC[C@H](O)c1ccc(O)c3[nH]c(=O)ccc13)C2 [Indacaterol Maleate],0.94
7,CNCC(O)c1ccc(O)c(O)c1 (centres undefined) [Racepinephrine HCl],1.04
8,c1cc(CN2CCCCC2)cc(OCCCNc2nc3ccccc3s2)c1 [Zolantidine dimaleate],0.982
9,CCOC1O[C@H]([C@@H](COCc2ccccc2)OCc2ccccc2)[C@H](OCc2ccccc2)[C@H]1O (some centres undefined) [Tribenoside],1.06
10,CC(CNC1CCCCC1)OC(=O)c1ccccc1 (centres undefined) [Hexylcaine hydrochloride],1.04
11,O=C(O)c1cccc(-c2noc(-c3ccccc3F)n2)c1 [PTC124 (Ataluren)],1.04
12,Cc1ccc(-c2cc(C(F)(F)F)nn2-c2ccc(S(N)(=O)=O)cc2)cc1 [Celecoxib],0.956 ± 0.048
13,CC(C)[N+]1(C)[C@@H]2CC[C@H]1C[C@@H](OC(=O)C(CO)c1ccccc1)C2 (some centres undefined) [Ipratropium bromide],1.09
14,CCOC(=O)C1=C(C)NC(=S)NC1c1cccc(O)c1 (centres undefined) [Monastrol],0.994
15,CCn1c(N)c(C(=O)NC)c(=O)c2ccc(C#CC(C)(O)COC)nc21 (centres undefined),0.999 ± 0.061
16,N#Cc1c(N(CC(=O)O)CC(=O)O)sc(C(=O)O)c1CC(=O)O [Strontium ranelate (Protelos)],1.07
17,CC[C@H]1OC(=O)[C@H](C)[C@@H](O[C@H]2C[C@@](C)(OC)[C@@H](O)[C@H](C)O2)[C@H](C)[C@@H](O[C@@H]2O[C@H](C)C[C@H](N(C)C)[C@H]2O)[C@](C)(O)C[C@@H](C)CN(C)[C@H](C)[C@@H](O)[C@]1(C)O [Azithromycin],0.989
18,CC[C@H]1OC(=O)[C@H](C)[C@@H](O[C@H]2C[C@@](C)(OC)[C@@H](O)[C@H](C)O2)[C@H](C)[C@@H](O[C@@H]2O[C@H](C)C[C@H](N(C)C)[C@H]2O)[C@](C)(O)C[C@@H](C)CN(C)[C@H](C)[C@@H](O)[C@]1(C)O [Azithromycin (Zithromax)],1.08
19,C[C@@H]1CCC[C@H](C)N1NC(=O)c1ccc(Cl)c(S(N)(=O)=O)c1 [Clopamide],0.991
20,CN[C@H]1CC[C@@H](c2ccc(Cl)c(Cl)c2)c2ccccc21 [Sertraline hydrochloride],0.828
21,CN[C@H]1CC[C@@H](c2ccc(Cl)c(Cl)c2)c2ccccc21 [Sertraline],0.953
22,COCCNC(=O)COc1ccc(OCCNC[C@H](O)COc2ccccc2)cc1 [ZD 7114 hydrochloride],0.954

# 7 neighbouring records out of the list so far, quoted:
row,SMILES,surface PD-L1 immunofluorescence intensity
11,O=C(O)c1cccc(-c2noc(-c3ccccc3F)n2)c1 [PTC124 (Ataluren)],1.04
12,Cc1ccc(-c2cc(C(F)(F)F)nn2-c2ccc(S(N)(=O)=O)cc2)cc1 [Celecoxib],0.956 ± 0.048
13,CC(C)[N+]1(C)[C@@H]2CC[C@H]1C[C@@H](OC(=O)C(CO)c1ccccc1)C2 (some centres undefined) [Ipratropium bromide],1.09
14,CCOC(=O)C1=C(C)NC(=S)NC1c1cccc(O)c1 (centres undefined) [Monastrol],0.994
15,CCn1c(N)c(C(=O)NC)c(=O)c2ccc(C#CC(C)(O)COC)nc21 (centres undefined),0.999 ± 0.061
16,N#Cc1c(N(CC(=O)O)CC(=O)O)sc(C(=O)O)c1CC(=O)O [Strontium ranelate (Protelos)],1.07
17,CC[C@H]1OC(=O)[C@H](C)[C@@H](O[C@H]2C[C@@](C)(OC)[C@@H](O)[C@H](C)O2)[C@H](C)[C@@H](O[C@@H]2O[C@H](C)C[C@H](N(C)C)[C@H]2O)[C@](C)(O)C[C@@H](C)CN(C)[C@H](C)[C@@H](O)[C@]1(C)O [Azithromycin],0.989

# Remaining list, next part.

row,SMILES,surface PD-L1 immunofluorescence intensity
1,COCC(=O)NC/C=C/c1ccc2ncnc(Nc3ccc(Oc4ccc(C)nc4)c(C)c3)c2c1,0.842
2,Cn1c(=O)c2c(ncn2CC2OCCO2)n(C)c1=O [Doxofylline],1.03
3,Oc1cc2c(cc1O)C(c1ccccc1)CNCC2 (centres undefined),0.967
4,CC(C)NC[C@@H](C(=O)N1CCN(c2ncnc3c2[C@H](C)C[C@H]3O)CC1)c1ccc(Cl)cc1 [Ipatasertib (GDC-0068)],0.823
5,Cc1ccc([C@@H]2O[C@H](CO)[C@@H](O)[C@H](O)[C@H]2O)cc1Cc1ccc(-c2ccc(F)cc2)s1 [Canagliflozin],1.02
6,CC(C)(C)c1cc(C(C)(C)C)c(NC(=O)c2c[nH]c3ccccc3c2=O)cc1O [Ivacaftor (VX-770)],1.21
7,CN1CCN(CC(=O)N2c3ccccc3C(=O)Nc3cccnc32)CC1 [Pirenzepine dihydrochloride],0.797
8,CC(=O)N(CC(O)CO)c1c(I)c(C(=O)NCC(O)CO)c(I)c(C(=O)NCC(O)CO)c1I (centres undefined) [Iohexol],0.997
9,CN(CCCCCCCCCCN(C)C(=O)Oc1cccc([N+](C)(C)C)c1)C(=O)Oc1cccc([N+](C)(C)C)c1 [Demecarium bromide],0.99
10,CC1CCN(CC[C@H]2CCCN2S(=O)(=O)c2cccc(O)c2)CC1,0.998 and 0.96
11,Nc1ncnc2c1ncn2[C@@H]1O[C@H](CO)[C@@H](O)[C@@H]1O [Vidarabine],1.1
12,NC[C@@H]1O[C@H](C23CC4CC(CC(C4)C2)C3)Cc2c1ccc(O)c2O,0.976
13,CC1OC2(CS1)CN1CCC2CC1 (centres undefined) [Cevimeline hydrochloride],0.978
14,CCOc1nc2cccc(C(=O)O)c2n1Cc1ccc(-c2ccccc2-c2nnn[nH]2)cc1 [Candesartan],0.917
15,C[C@@](Cc1ccc(O)c(O)c1)(NN)C(=O)O [Carbidopa],0.909
16,O=C[C@@H]1CCCN1C(=O)[C@@H]1CCCN1C(=O)OCc1ccccc1 [Z-Prolyl-prolinal],1
17,COc1ccc(Cl)cc1NC(=O)Nc1cc(C)nc2ccccc12,1.06 ± 0.032
18,CN(C)CCC(c1ccc(Br)cc1)c1ccccn1 (centres undefined) [Brompheniramine maleate],0.96
19,O=C1CC[C@@H](C(=O)N2CSC[C@H]2C(=O)O)N1 [Pidotimod],0.946
20,c1ccc(-c2ccc(C(c3ccccc3)n3ccnc3)cc2)cc1 (centres undefined) [Bifonazole],1.13
21,Oc1c(Cl)cc(Cl)c2cccnc12 [Chloroxine],0.952
22,CCCCCCCCCC(=O)N[C@@H](Cc1c[nH]c2ccccc12)C(=O)N[C@H](CC(N)=O)C(=O)N[C@@H](CC(=O)O)C(=O)N[C@@H]1C(=O)NCC(=O)N[C@@H](CCCN)C(=O)N[C@@H](CC(=O)O)C(=O)N[C@H](C)C(=O)N[C@@H](CC(=O)O)C(=O)NCC(=O)N[C@H](CO)C(=O)N[C@@H]([C@H](C)CC(=O)O)C(=O)N[C@@H](CC(=O)c2ccccc2N)C(=O)O[C@@H]1C [Daptomycin],1.03
